To fix the notation:
B1: tRNA (parent)
chain: GUUCCGUUGGCGUAAUGGUAACGCGUCUCCCUCCUAAGGAGAAGACUGCGGGUUCGAGUCCCGUACGGAACG

This sample is rich in variants without activity.

For 38 variants, yeast fitness results are on record in the RNAGym collection of RNA variant scans (doi:10.1126/science.aae0568).

In the series the parent is B1. In words: yeast fitness relative to wild type (ratio to wild type); higher = fitter; tRNA-Arg(CCU), competitive growth, 37 C, YPD. The method, boiled down:
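Start and end populations of a pooled competition were compared by 100-nucleotide paired-end sequencing of gene amplicons. The Saccharomyces cerevisiae strains carried tRNA-Arg(CCU) gene variants at the native genomic locus, synthesised with a 3% per-site mutation rate at 69 sites, and competed in YPD at 37°C for 24 hours in six parallel replicates. Darwinian fitness relative to wild type was based on the change in genotype frequencies. Genotypes required ≥ 100 starting reads, and estimates < 0.5 were set to 0.5.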
For GUUCCGUUGGCGUAAUGGUAACGCGUCUCCCUCCUAAGGAGAUGACUGCGGGUUCGAGUCCGGUGAGGCACG [A43U C62G A65G C66A A69C], the yeast fitness was at most 0.5.

Consider GUUCCGCUGGCGUAAUGGUAACGCGUCUCCCUCCUAGGGAGCAGACUGCGGGUUCGAGUCCCGUCCGGCACG [U7C A37G A42C A65C A69C], for which the yeast fitness was at most 0.5.

For GUUCCGUUGGCGUAAUGGUAACGCGUCUCCCUCUUAAGGAGAAGACUGCGGGUUCGAGUCACGUACGGAACG [C34U C61A], the yeast fitness was determined as 0.563.

For GGUCCGUUGGCGUAAUGGUAACGCGUCUCCCUCGUAAGGAGAAGACUGGGGGUACGCGUCCCGUACGAAACG [U2G C34G C49G U54A A57C G68A], the yeast fitness is at most 0.5.

On to GUUCCGGUGGCGUAAUGGUAACGCGUCUCCCUCCUAAGGAGAAGACUGUGGGUUCGAGUCGCGUACGGAACG [U7G C49U C61G], for which the yeast fitness is at most 0.5.

As to GGUCCGUUGGCGUAAUGGUACUGCGUCUCCCUCCUAAGGAGAAGACUGAGGGUUCGAGUCCCGUACGGAACG [U2G A21C C22U C49A], the yeast fitness was at most 0.5.

As to GCUUCGUUGGCGUAAUGGUAAUGCGUCUCCUUCCUAAGGAGAAGACUGCGGGUUCGAGUGCCGUACGGAGCG [U2C C4U C22U C31U C60G A70G], the yeast fitness is at most 0.5.

Regarding GUUCCGUUGGCGUAUUGGUAACGCGUCUCCCUCCUAGGGAGAAGAUUGCGGGUUCGAGUACCGUACGGAACG [A15U A37G C46U C60A], the yeast fitness was at most 0.5.

On to GUGCCGUUGGCGUAAUGGUAACGCGUCUCCCUCCUAAGGAGAGGACUGCGGGUUCGAGUCCCGUUCGGAACG [U3G A43G A65U], for which the yeast fitness worked out at 0.701.

For the variant GUUCCGUUGGAGUGAUGGUAACGCGUCUCUCUCCUAAGGAGAAGACUGGGGGUUCGAGUCCCGUACCGAACG [C11A A14G C30U C49G G67C], the yeast fitness is at most 0.5.

On to GUUCCGUUGGCGUAAUGGUAACGCGUCUCCCUCCUAAGGAGACGACAGCGGGUUCGAGUCCCGUACGGAACG [A43C U47A], for which the yeast fitness worked out at 0.732.

As for GUUCCGUUGGCGUUAUGGUCACGGGUCUCCCUCCUAAGGAGAAGACUGCGGGUUUGAGUCCCGUACGGUACG [A14U A20C C24G C55U A69U], the yeast fitness was at most 0.5.

Consider GUUCGGUUGGCGUUAUGGUAACGCGUCUCCCUCCUAAGGAGAAGACUGCGGGUUCGAGUCCCGUACGCAACG [C5G A14U G68C], for which the yeast fitness was at most 0.5.

Turning to GUUCCGUUGGCGUAGUGGUAACGCAUCUCCCGCCUAAGGGGAAGACUGCGGGUUCGAGUGCAGUACGGAACG [A15G G25A U32G A40G C60G C62A], the yeast fitness is at most 0.5.

With GUUCCGUUGGCGUAAUGGUAACGCGGCUCCCUCCUAAGGAGAAGACUGCGGGUUGGAGUCCCGUCCGGAACG [U26G C55G A65C], the yeast fitness was at most 0.5.

Consider GUACCGUUGGCGUAAUGGUAUCGCGUCUCCCUCCUAAGGAGAAGACUGCGGGUUCGAGUGCCGUACGGAACG [U3A A21U C60G], for which the yeast fitness is at most 0.5.

Regarding GUUCCGUUGCCGUAAUGGUAACGCGUCUUCCUCUUAAAGAGAACACUGCGGGUUCGAGUCCCGUACGGAACG [G10C C29U C34U G38A G44C], the yeast fitness was at most 0.5.

As for GUUCCGUUGGCGUAAUGGUCACGGGUAUCCCUCCUAAGGAGAAGACUGCGGGUUCGAGUCCCGUACGGAACG [A20C C24G C27A], the yeast fitness was at most 0.5.

For the variant GUCCCGUUGGCGUAAUGGUAACGCGUCUCCCUCCUAAGGAGAAGACUGCGCGUUCGAGUCCCGUACGGAACG [U3C G51C], the yeast fitness came to 0.521.

On to GUUCCGUUGGCGUAAUGGUAACGCAUCUCCCUCCUAAGGAGUAGACUGCGGGUUCGGGUCCCGUACGGAACG [G25A A42U A57G], for which the yeast fitness was at most 0.5.

For the variant GUUCCGUCGGCAUAAUGGUAACGCGUCUCCUUCCUAAGGAGAAGACUGCGGAUUCCAGUCCCGUACGGAACG [U8C G12A C31U G52A G56C], the yeast fitness is at most 0.5.

In the case of GUUCCGUUCGCGUAAUGGUAUCGCGUUUCCCUCCUAAGGUGAAGACUGCGGGUUCGAGUCACGUACGAAACG [G9C A21U C27U A40U C61A G68A], the yeast fitness is at most 0.5.

Consider GUUCCGUUGGCGUAGUGGUUACGCGUCUGCCUCCUAAGGAGAGGACUGCGGGUUCGACUCCCGUACGGUACG [A15G A20U C29G A43G G58C A69U], for which the yeast fitness is at most 0.5.

For the variant GAUCUGUUAGCGAAAUGGUAACGAGUCUCCCUCCUAAGGAGAAGCCUGCGGGUUCGAGUCCCGUACGGAACG [U2A C5U G9A U13A C24A A45C], the yeast fitness is at most 0.5.

As to GUUCUGUUGGCGUAAUGGUAACGCGUCUCCCUCCUAAGGGGAAGACAGUGGGUUCGAGUCCUGUGCGGAACG [C5U A40G U47A C49U C62U A65G], the yeast fitness is at most 0.5.

Turning to GUUCAGUUGGCGUAAUGGUAACGUGUCUCCCUCCUAAGGAGAAGACUGCGGGUUUGAGUCCCGUACGGAACG [C5A C24U C55U], the yeast fitness was at most 0.5.

In the case of GUUCCGUUGGCGUCAUCGUAACGCGUCUCCUUCCUACGGAGAAGACUGCGGGUUCGAGUCCCGUAUGGAACG [A14C G17C C31U A37C C66U], the yeast fitness is at most 0.5.

Consider GUUCCGUUGGCGUAAUGGAAACGCGUCUCCCUCAUAAGGAGAAGACUGCGGGUACGAGUCCUGUACGGAACG [U19A C34A U54A C62U], for which the yeast fitness is at most 0.5.

Consider GUCCCGUUGGCGUGAUGGUAACGCGUCUCCCUCCUAAGGAGAAGACUGCGGGUUCGAGUCCCGUACGGAACG [U3C A14G], for which the yeast fitness turned out to be 0.917.

In the case of GUUCCGUCGGCGUAAUGGUAACGCGUCUCCCUCCUAAGCAGAAGACCGCGGGUUCGAGUAGCGUACGGUACG [U8C G39C U47C C60A C61G A69U], the yeast fitness was at most 0.5.

On to GUUCCGUAGGCGUAAUGGUAACGCGUCUCCCUCCUAAGGAGCAGACUGCGAGUUCGAGUCUCGUACGGAACG [U8A A42C G51A C61U], for which the yeast fitness was at most 0.5.

For the variant GUUGCGUUGGCGUAUUGGUAACCCGUCUCCCUCCUAAGGAGAAGACUGCGGGUUCGAGUCCCGUACGGAACG [C4G A15U G23C], the yeast fitness was at most 0.5.

For the variant GUUCCGUUGGCGUAAUAGUAACGCGUCUCCCUCCUACGGAGAAGACUGCGGGUUCGAGUCCCGUACGGCACG [G17A A37C A69C], the yeast fitness is 0.648.

For GAUCCGUUGGGGUAAUGGUAACGCGUCUCCCUCCUAUGGUGAAGACUGCGGGUUCGAGUCCCGUACGGAACG [U2A C11G A37U A40U], the yeast fitness is at most 0.5.

As to GUUCCGUUGGCGUAAUGGUAACGCGUCUCCCUCCUAAGAAGAAGCCUGCGGGUUCGAGUCCCGUUUGGAACG [G39A A45C A65U C66U], the yeast fitness is at most 0.5.

For the variant GUUCUGUUGGCGUAAUGGUAACGCGUCUCCCUCCUAAGGAGAAGACUGCGGGUUCGGGUCCCAUACGGAACG [C5U A57G G63A], the yeast fitness stood at 0.63.

GUUCCGUUGGCGUAAUGGUAACGCGUCUCCCUCCUAGGGAGAAGUCUGCGGGUUCGAGUCCCGAACGGAACG [A37G A45U U64A]: the yeast fitness was at most 0.5.

Take GUUCCGUUGGCGUAAUGGCGACGCGUCUCCCUCCUAAGGGGAAGACUGCGGGUUCGAGUCCCGUACGGAACG [U19C A20G A40G]: the yeast fitness was at most 0.5.
